According to PubChem BioAssay AID493027 (The Scripps Research Institute Molecular Screening Center, 2011):
Values joined by “and” are separate entries in the source; they are usually repeats but may differ in a detail not shown here. Equal values may be shown once. Out of some 2,000 compounds screened, about 45 (2%) were called active.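 Rule for the calls: active = inhibition above the screen-wide mean inhibition plus 3 SD (cut at about 44% in these data); inactive = the rest.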 The list shows a part of the results. Where a SMILES comes first, the peptide text is derived from it.

The chains behind the UniProt entries cited, without tags or fusion partners. Where a name states a change or a piece, a line headed by the entry shows the natural chain unless it says otherwise.
UniProt O60240: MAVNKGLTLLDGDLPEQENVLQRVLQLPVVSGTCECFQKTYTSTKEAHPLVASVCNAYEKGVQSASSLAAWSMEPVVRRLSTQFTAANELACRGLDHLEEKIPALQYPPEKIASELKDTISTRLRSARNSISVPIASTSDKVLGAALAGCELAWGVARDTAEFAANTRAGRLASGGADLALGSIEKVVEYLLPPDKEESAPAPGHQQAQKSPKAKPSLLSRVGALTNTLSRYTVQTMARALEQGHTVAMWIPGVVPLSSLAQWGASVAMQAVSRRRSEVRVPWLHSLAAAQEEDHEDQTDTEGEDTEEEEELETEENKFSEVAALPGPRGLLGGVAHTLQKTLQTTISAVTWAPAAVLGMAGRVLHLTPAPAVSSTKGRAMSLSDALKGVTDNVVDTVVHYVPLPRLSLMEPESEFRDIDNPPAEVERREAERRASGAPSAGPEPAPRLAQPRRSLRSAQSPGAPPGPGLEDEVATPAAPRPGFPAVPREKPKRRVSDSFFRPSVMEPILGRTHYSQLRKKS
UniProt Q8WTS1: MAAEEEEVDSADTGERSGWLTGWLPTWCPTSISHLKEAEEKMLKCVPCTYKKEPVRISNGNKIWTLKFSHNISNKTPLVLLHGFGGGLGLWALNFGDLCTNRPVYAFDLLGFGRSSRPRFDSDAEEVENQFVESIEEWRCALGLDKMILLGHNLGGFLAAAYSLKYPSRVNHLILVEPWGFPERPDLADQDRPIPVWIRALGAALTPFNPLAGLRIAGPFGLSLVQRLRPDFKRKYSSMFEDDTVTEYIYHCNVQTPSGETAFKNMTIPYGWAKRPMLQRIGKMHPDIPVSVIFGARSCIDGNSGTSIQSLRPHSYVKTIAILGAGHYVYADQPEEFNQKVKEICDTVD

Target: Perilipin-1 (Homo sapiens) + 1-acylglycerol-3-phosphate O-acyltransferase ABHD5 (Homo sapiens) (UniProt O60240+Q8WTS1)
Assay: ABHD5-PLIN1 interaction inhibitors, pilot screen, cell lysate, split luciferase complementation, luminescence, NIH validation set (AID 493027);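 note: 0% = DMSO wells with the 100% control not disclosed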
Details: split G. princeps luciferase complementation, 4 h; at 7.9 µM, stronger effect = higher value

inhibition, inactive:
COc1cc2c(cc1OC)C(C)=NC1(CCCCC1)C2 -6.1%, O=C1OC(Nc2ccc3c(c2)OCO3)c2ccccc21 (stereo not drawn) 6.91%, CCNC(=O)c1c(N)sc2c1CCCCC2 6.41%, COc1ccc(C(C)N2CC34C=CC(O3)C(C(=O)OCC(C)C)C4C2=O)cc1 (stereo not drawn) -3.6%, Nc1c2c(nc3ccccc13)CCCC2 5.39%, Nc1ccc2cn[nH]c2c1 -18.1%, COc1cc2cc(C(=O)O)n(C)c2c(OC)c1OC 3.69%, CCOC(=O)C(NC(C)=O)C(O)c1ccc([N+](=O)[O-])cc1 (stereo not drawn) -8.13%, CCSc1nc(O)c(C2OC(=O)c3c2ccc(OC)c3OC)c(=O)n1CC (stereo not drawn) -1.67%, COCCOC(=O)C1=C(N)OC2=C(C(=O)CCC2)C1c1cccnc1 (stereo not drawn) -5.76%, c1ccc(-c2ccccn2)nc1 2.78%, C[C@]12C[C@H](O)[C@H]3[C@@H](CCC4=CC(=O)CC[C@@]43C)[C@@H]1CC[C@@H]2C(=O)CO -0.42%, O=C(NC(Nc1ccccn1)C(Cl)(Cl)Cl)c1ccccc1 (stereo not drawn) 9.27%, O=C(NCCNc1ccc(Cl)cc1[N+](=O)[O-])c1cccnc1 3.6%, COc1ccc(NC(=S)NCCc2c[nH]c3ccccc23)cc1 0.31%, CC(C)Oc1ccc(C2CC(=O)N(c3ccc(C(=O)O)cc3)C2=O)cc1 (stereo not drawn) -6.52%, Oc1ccc(COCc2ccccc2)c2cccnc12 -4.04%, O=C(O)c1cc2cc(Cl)cc(Cl)c2oc1=O 1.22%, CC(=O)c1c(C)c(C)c2n1CCn1c(C)ccc1-2 5.75%, O=C(OCC(O)C(O)COC(=O)c1ccccc1)c1ccccc1 (stereo not drawn) -7.77%, O=C(CCc1ccccc1)Nc1ccccc1C(F)(F)F -14%, COc1cc(CNc2ccc(C)c(C)c2)cc(OC)c1OC 0.28%, Cc1ccc(C2CC(c3cccs3)=NN2C(=O)c2ccco2)o1 (stereo not drawn) 1.57%, O=C(CNC(=O)OCc1ccccc1)NC1CCCCCC1 -8.58%, CC(=O)N[C@@H](CS)C(=O)O -18.8%, Cc1nc(C2CC(=O)OC23CCCCC3)cs1 (stereo not drawn) -10.4%, COc1ccc(C(=O)O)cc1F -0.5%, COc1cccc(OCc2cc(C3Nc4ccccc4C(=O)N3Cc3ccco3)ccc2OC)c1 (stereo not drawn) 42.9%, O=C(CCCCC(=O)NC1CCCC1)NC1CCCC1 -1.07%, CC[C@H](C)C(=O)O[C@H]1C[C@@H](C)C=C2C=C[C@H](C)[C@H](CC[C@@H]3C[C@@H](O)CC(=O)O3)[C@H]21 0.42%, CC1(C)CC(=O)C(C2(O)C(=O)Nc3ccccc32)CO1 (stereo not drawn) -16.5%, Cc1cc(OC(C(=O)O)c2ccccc2)c2c(C)c(Cc3ccccc3)c(=O)oc2c1 (stereo not drawn) 31.9%, C[N+]12CCCCC1C(COC(=O)c1ccc3c(c1)OCO3)CCC2 (stereo not drawn) -2.51%, CCCCNc1cc(C(=O)O)cc(S(N)(=O)=O)c1Oc1ccccc1 -6.42%, CC1(C)CC(CC(=O)O)(c2ccc(Cl)cc2)CCO1 (stereo not drawn) 3.84%, COc1c2c(nc3occc13)C(CC=C(C)C)(OC)C(O)CC2 (stereo not drawn) -3.7%, Cc1cc(O)c(C(C)C)cc1C1(c2cc(C(C)C)c(O)cc2C)OC(=O)c2ccccc21 36%, COc1ccc(C2CC(c3ccc([N+](=O)[O-])cc3)=NN2C(=O)c2ccccc2)cc1OC (stereo not drawn) -4.89%, CCCCCC(O)c1cccc(OCc2ccc3ccccc3n2)c1 (stereo not drawn) 14.8%, O=c1ccn([C@@H]2O[C@H](CO)[C@@H](O)[C@H]2O)c(=O)[nH]1 -4.21%, CC(=O)N1CC2(C)CN(C(C)=O)CC(C)(C1)C2 -2.82%, CC1(C#CC[N+]2(C)CCCCC2)CCC2C(O1)c1ccccc1OC2(C)C (stereo not drawn) -0.14%, Cc1ccc(C(=O)COC(=O)c2cccc(N3C(=O)c4c(C)nc5ccccc5c4C3=O)c2)cc1C 1.41%, CC(=O)NC(CC(C)C)C(=O)NC(Cc1ccccc1)C(N)=O (stereo not drawn) (Ac-Leu-Phe-NH2; configuration not given here) -3.91%, Cc1ccnc(NS(=O)(=O)c2ccc(N)cc2)n1 -6.8%, Cc1c(OCC(=O)NC(Cc2c[nH]c3ccc(O)cc23)C(=O)O)ccc2c3c(c(=O)oc12)CCC3 (stereo not drawn) -9.89%, NC(=O)OCC(COC(N)=O)c1ccccc1 -8.74%, C[C@H]([C@@H](N)C(=O)N[C@@H](C(=O)O)[C@@H]1O[C@H](n2ccc(=O)[nH]c2=O)[C@@H](O)[C@H]1O)[C@@H](O)c1ccc(O)cn1 8.07%, Cc1cccc(OCC(=O)Nc2ccc(C(=O)NCC(C)C)cc2)c1 -6.6%, COc1cc(CC(=O)NCCc2ccc(S(N)(=O)=O)cc2)cc(OC)c1OC 1.29%, COc1ccc(C(=O)CCN2CCc3cc(OC)c(OC)cc3C2)cc1 23.8%, Cc1cc(OC(=O)CNC(=O)OC(C)(C)C)c2c(C)cc(=O)oc2c1 6.38%, O=C(NCCN1CCOCC1)c1ccc(Cl)cc1 -3.93%, Cc1cccc2c(=O)n3c(nc12)CCCCC3 -4.08%, O=C1CCCN1CCCn1cnc2c([nH]c3ccc(F)cc32)c1=O -3.75%, CC(=O)CCCCn1c(=O)c2c(ncn2C)n(C)c1=O 3.13%, O=C(CCCN1C(=O)/C(=C\c2cccs2)SC1=S)Nc1ccccn1 5.07%, O=C(O)CCn1cnc2ccccc2c1=O 3.53%, CC(=O)N(CCC1(c2ccc(C)cc2)CCOC(C(C)C)C1)Cc1ccco1 (stereo not drawn) 4.94%, O=C(Oc1ccccc1)Oc1ccc2c(c1)oc(=O)c1ccccc12 -0.35%, Cc1nc(N[C@@H](Cc2c[nH]c3ccccc23)C(=O)O)c2oc3ccccc3c2n1 5.88%, CCOC(=O)N1CCc2[nH]c3ccc(C)cc3c2C1 18.8%, Oc1ccc(Oc2ncc(Cl)cc2Cl)cc1 -2.32%, CNCCCC12CCC(c3ccccc31)c1ccccc12 -8.78% and -2.5%, CCCCCC(=O)O[C@]1(C(C)=O)CC[C@H]2[C@@H]3CCC4=CC(=O)CC[C@]4(C)[C@H]3CC[C@@]21C 0.86%, Cc1ccc2[nH]c3c(=O)n(CCc4cnc[nH]4)cnc3c2c1 0.46%, COC(=O)C1=CN(Cc2cccs2)C=C(C(=O)OC)C1c1cccc(Cl)c1 11.1%, CC(C)NC[C@@H](O)c1ccc(O)c(O)c1 -21.4%, COc1ccc(S(N)(=O)=O)cc1C(N)=O -5.05%, CO[C@@H]1O[C@@H]2COC(c3ccccc3)O[C@@H]2[C@@H](OC)[C@@H]1O (stereo partly drawn) 0.52%, CC(=O)N1CCN(c2ccc(OC[C@H]3CO[C@](Cn4ccnc4)(c4ccc(Cl)cc4Cl)O3)cc2)CC1 21.4%, CC(=O)[C@H]1CC[C@H]2[C@@H]3CCC4=CC(=O)CC[C@]4(C)[C@H]3CC[C@]12C -3.47%, CN(C)CCOC(c1ccccc1)c1ccccc1 -7.45%, CN1CCc2cccc3c2[C@@H]1Cc1ccc(O)c(O)c1-3 12.5%, O=C(NCc1ccco1)/C(=C\C=C\c1ccccc1)NC(=O)c1ccccc1Br 15.9%, COc1ccc(C2NC(C(=O)O)Cc3c2[nH]c2ccccc32)cc1CN1CCN(c2ccc(F)cc2)CC1 (stereo not drawn) 3.66%, CSCCC1NC2(C(=O)Nc3ccc(Cl)cc32)[C@@H]2C(=O)N(C3CCCC3)C(=O)[C@H]12 (stereo partly drawn) -0.47%, CN1C2CCC1CC(OC(c1ccccc1)c1ccccc1)C2 (stereo not drawn) 1.58%, COc1cccc(OC)c1C(=O)Nc1nc2ccc([N+](=O)[O-])cc2s1 0.1%, CCC[C@@H]1C[C@@H](C(=O)N[C@H]([C@@H](C)O)[C@H]2O[C@H](SC)[C@H](O)[C@@H](O)C2O)N(C)C1 (stereo partly drawn) -11.3%, CCCN(CCC)S(=O)(=O)c1ccc(C(=O)O)cc1 2.83%, C[C@]12CC[C@@H]3c4ccc(O)cc4CC[C@H]3[C@@H]1CC[C@@H]2O 0.73%, CC(NC(=O)OCc1ccccc1)C(=O)N1CC(O)CC1C(=O)O (stereo not drawn) -6.96%, CC(NC(=O)c1ccc(N2CCNCC2)c([N+](=O)[O-])c1)C12CC3CC(CC(C3)C1)C2 (stereo not drawn) -0.37%, Cn1c(=O)oc2cc(S(=O)(=O)N3CCc4ccccc4C3)ccc21 -1.46%, CN(C)CCN(Cc1ccccc1)c1ccccn1 -7.62%, CC1(C)C(=O)OC(c2cccs2)C2(CCCCC2)C1=O (stereo not drawn) -2.96%, C=CCN1C(=O)c2oc3ccccc3c(=O)c2C1c1ccc(O)c(OC)c1 (stereo not drawn) 5.81%, COc1cccc2c(=O)c3ccccc3oc12 -14.7%, O=c1cnn([C@@H]2O[C@H](CO)[C@@H](O)[C@H]2O)c(=O)[nH]1 -8.69%, CC1=CC(C)(C)N2C(=O)C3(NCCc4c3[nH]c3ccccc43)c3cc(C)cc1c32 (stereo not drawn) 8.09%, COc1ccc(CC(=O)N2CC3(C)CC2CC(C)(C)C3)cc1OC (stereo not drawn) -9.37%, O=C(/C=C/c1ccco1)NCc1ccc2c(c1)OCO2 12.9%
